In article PMC5442318, “Hundreds of dual-stage antimalarial molecules discovered by a functional gametocyte screen” (Nature Communications, 2017):

Test system: HepG2 cells
Experiment: HepG2 cytotoxicity assay
Format: cell-based
Details: HepG2 TOX50 versus Pf FGAA IC50
Description: After incubation, plates and CellTiter-Glo Reagent (G7571, Promega) were equilibrated at room temperature for 30 min before proceeding to develop the luminescent signal. Using a Multidrop combi dispenser, 25 μl per well of the signal developer were added to the plates and after 10 min at room temperature for stabilization, plates were read on the ViewLux system (Perkin Elmer).

Compound | Selectivity ratio
Nc1c(Cl)cc(C(O)CNCCCCCOCCCc2ccc(O)c3ncccc23)cc1Cl.O=C(O)/C=C/C(=O)O (stereo not drawn) [TCMDC-132088] | 3.69
CCc1c(CCNCCCCCCNCCc2ccc3c(c2C)OCO3)ccc2c1OCO2.Cl [TCMDC-132093] | 3.81
CN(C)Cc1cccc2nc(-c3csc(Cc4cc(Cl)ccc4OCc4ccccc4)n3)[nH]c12 [TCMDC-132174] | 6.21
O=C(O)C(F)(F)F.O=S(=O)(NCCN1CCCC1)c1ccc(-c2cccc(CNC3Cc4ccccc4C3)c2)cc1 [TCMDC-132215] | 2.38
O=C(O)C(F)(F)F.O=S(=O)(NCCN1CCCC1)c1ccc(-c2cccc(CNC3Cc4ccccc4C3)c2)s1 [TCMDC-132217] | 4.26
CN1CCC(NCc2cccc(-c3ccc(S(=O)(=O)NCc4ccccc4)c(F)c3)c2)CC1.O=C(O)C(F)(F)F [TCMDC-132219] | 1.95
O=C(O)C(F)(F)F.O=S(=O)(NCCN1CCCC1)c1ccc(-c2ccc(CNC3Cc4ccccc4C3)cc2)s1 [TCMDC-132234] | 2.56
O=C(O)C(F)(F)F.O=S(=O)(NCCN1CCCC1)c1cccc(-c2ccc(CNC3Cc4ccccc4C3)cc2)c1 [TCMDC-132241] | 2.08
Cc1cc(-c2ccc(CNC3Cc4ccccc4C3)cc2)ccc1S(=O)(=O)NCCN1CCCC1.O=C(O)C(F)(F)F [TCMDC-132243] | 2.90
COc1ccc(CNC2Cc3ccccc3C2)cc1-c1ccc(S(=O)(=O)NCCN2CCCC2)cc1.O=C(O)C(F)(F)F [TCMDC-132248] | 2.95
COc1ccc(CNC2Cc3ccccc3C2)cc1-c1ccc(OC)c(S(=O)(=O)NCCN2CCCC2)c1.O=C(O)C(F)(F)F [TCMDC-132251] | 2.65
COc1ccc(CNC2CCN(C)CC2)cc1-c1ccc(S(=O)(=O)NCc2ccccc2)s1.O=C(O)C(F)(F)F [TCMDC-132253] | 3.13
COc1ccc(CNC2Cc3ccccc3C2)cc1-c1ccc(S(=O)(=O)NCCN2CCCC2)s1.O=C(O)C(F)(F)F [TCMDC-132258] | 3.82
COc1ccc(CNC2Cc3ccccc3C2)cc1-c1ccc(S(=O)(=O)NCCN2CCCC2)c(F)c1.O=C(O)C(F)(F)F [TCMDC-132266] | 3.10
Cl.N[C@@H](CCNC1CCN(c2cccc(C(F)(F)F)c2)CC1)Cc1ccc(F)c(F)c1 [TCMDC-132301] | 8.50
Cc1ccc(Cn2nc(N3CCNCC3)ccc2=O)cc1NC(=O)Nc1ccc(-c2ccccc2)cc1.O=C(O)C(F)(F)F [TCMDC-132580] | 3.83
O=S(=O)(Nc1cccc(F)c1CNCc1ccccn1)c1ccc(Cl)c(Cl)c1 [TCMDC-132598] | 15.04
Cc1cccc2nc(-c3ccc(-c4ccc(CNCc5ccc(CN)cc5)cc4)s3)[nH]c12.O=C(O)C(F)(F)F [TCMDC-132809] | 31.75
NCc1ccc(CNCc2cccc(-c3ccc(-c4nc5cc(C(F)(F)F)ccc5[nH]4)cc3)c2)cc1.O=C(O)C(F)(F)F [TCMDC-132811] | 17.69
Cc1cccc2nc(-c3ccc(-c4ccc(CNCc5ccc(CN)cc5)cc4)cc3)[nH]c12.O=C(O)C(F)(F)F [TCMDC-132813] | 8.37
NCc1ccc(CNCc2ccc(-c3ccc(-c4nc5cc(C(F)(F)F)ccc5[nH]4)s3)cc2)cc1.O=C(O)C(F)(F)F [TCMDC-132814] | 8.12

Compound | Selectivity ratio
CNCCNCc1ccc(-c2ccc(-c3nc4cc(C(F)(F)F)ccc4[nH]3)s2)cc1.O=C(O)C(F)(F)F [TCMDC-132838] | 4.75
FC(F)(F)c1ccc2[nH]c(-c3ccc(-c4ccc(CNCCN5CCNCC5)cc4)s3)nc2c1.O=C(O)C(F)(F)F [TCMDC-132862] | 4.30
FC(F)(F)c1ccc2[nH]c(-c3ccc(-c4cccc(CNCCN5CCNCC5)c4)cc3)nc2c1.O=C(O)C(F)(F)F [TCMDC-132864] | 7.18
FC(F)(F)c1ccc2[nH]c(-c3ccc(-c4ccc(CNCCN5CCNCC5)cc4)cc3)nc2c1.O=C(O)C(F)(F)F [TCMDC-132865] | 11.65
Cc1cccc2nc(-c3ccc(-c4ccc(CNCCN5CCNCC5)cc4)s3)[nH]c12.O=C(O)C(F)(F)F [TCMDC-132870] | 9.35
FC(F)(F)c1ccc2[nH]c(-c3cccc(-c4cccc(CNCCN5CCNCC5)c4)c3)nc2c1.O=C(O)C(F)(F)F [TCMDC-132871] | 5.42
FC(F)(F)c1ccc2[nH]c(-c3cccc(-c4ccc(CNCCN5CCNCC5)cc4)c3)nc2c1.O=C(O)C(F)(F)F [TCMDC-132872] | 4.93
CCCN(CC1CC1)c1ncc(-c2cccc(CNCCC3CCCN3C)c2)cn1 (stereo not drawn) [TCMDC-133142] | 1.42
CN(CCc1ccccc1)c1ncc(-c2cccc(CNCCC3CCCN3C)c2)cn1 (stereo not drawn) [TCMDC-133143] | 2.13
CN1CCCC1CCNCc1cccc(-c2cnc(N3CCCC(C)(C)C3)nc2)c1 (stereo not drawn) [TCMDC-133144] | 2.77
O=C(Nc1cccc(-c2cccc(-c3nc4cc(C(F)(F)F)ccc4[nH]3)c2)c1)Nc1ccc(F)c(F)c1F [TCMDC-133229] | 2.46
COc1cc(-c2cc(-c3ccc(S(C)(=O)=O)cc3)cnc2N)ccc1O [TCMDC-133343] | 106.15
COc1ccccc1C1CCN(C2CCC(NC(=O)c3ccc4[nH]c(-c5ccc(C)cc5)nc4c3)CC2)CC1 (stereo not drawn) [TCMDC-133556] | 1.60
CN1CCC(N2CCN(Cc3cccc(-c4ccc(-c5nc6cc(C(F)(F)F)ccc6[nH]5)cc4)c3)CC2)CC1.O=C(O)C(F)(F)F [TCMDC-133842] | 2.23
CN1CCCC(CN2CCN(Cc3cccc(-c4ccc(-c5nc6cc(C(F)(F)F)ccc6[nH]5)cc4)c3)CC2)C1.O=C(O)C(F)(F)F (stereo not drawn) [TCMDC-133882] | 3.14
O=C(O)C(F)(F)F.c1cc(CN2CCC(CCN3CCCCC3)CC2)cc(-c2csc(-c3nc4ccccc4[nH]3)c2)c1 [TCMDC-133919] | 2.87
Fc1ccc2[nH]c(-c3ccc(-c4ccc(CN5CCC(CCN6CCCCC6)CC5)cc4)cc3)nc2c1.O=C(O)C(F)(F)F [TCMDC-133924] | 2.31
Fc1ccc2[nH]c(-c3cccc(-c4ccc(CN5CCC(CCN6CCCCC6)CC5)cc4)c3)nc2c1.O=C(O)C(F)(F)F [TCMDC-133940] | 2.54
FC(F)(F)c1ccc2[nH]c(-c3ccc(-c4cccc(CN5CCC(CCN6CCCCC6)CC5)c4)cc3)nc2c1.O=C(O)C(F)(F)F [TCMDC-133941] | 3.54
Cn1c(Nc2cc(C(C)(C)C)on2)nc2cc(Nc3ccnc(Nc4cccc(S(=O)(=O)N5CCOCC5)c4)n3)ccc21 [TCMDC-134098] | 6.83
Cc1cc(Nc2ncc(C#N)c(Nc3ccccc3C(N)=O)n2)ccc1N1CCN(C)CC1.Cl [TCMDC-134115] | 0.24

Compound | Selectivity ratio
Cc1ccc(C(C(=O)Nc2ccc(N3CCNCC3)c(Cl)c2)c2ccccc2)cc1 (stereo not drawn) [TCMDC-134292] | 18.11
Cc1n[nH]c2ccc(-c3ccc4nccc(N5CCC(N)CC5)c4c3)cc12.Cl [TCMDC-134315] | 2.80
CC(C)c1ccc(CN2CCC(CNC(=O)c3cc(-c4cccc(C(F)(F)F)c4)cs3)C2)cc1.O=C(O)C(F)(F)F (stereo not drawn) [TCMDC-134435] | 3.93
CC(C)c1ccc(CN2CCC(CNC(=O)c3cc(-c4ccccc4F)cs3)C2)cc1.O=C(O)C(F)(F)F (stereo not drawn) [TCMDC-134436] | 8.46
CC(C)c1ccc(CN2CCC(CNC(=O)c3cc(-c4cccc(F)c4)cs3)C2)cc1.O=C(O)C(F)(F)F (stereo not drawn) [TCMDC-134437] | 4.56
CC(C)c1ccc(CN2CCC(CNC(=O)c3cc(-c4cccc(Cl)c4)cs3)C2)cc1.O=C(O)C(F)(F)F (stereo not drawn) [TCMDC-134438] | 10.89
COc1cccc(-c2csc(C(=O)NCC3CCN(Cc4ccc(C(C)C)cc4)C3)c2)c1.O=C(O)C(F)(F)F (stereo not drawn) [TCMDC-134439] | 8.39
CC(C)c1ccc(CN2CCC(CNC(=O)c3cc(-c4ccc(N(C)C)cc4)cs3)C2)cc1.O=C(O)C(F)(F)F (stereo not drawn) [TCMDC-134440] | 8.27
CC(C)(C)c1ccc(CN2CCC(CNC(=O)c3cc(-c4ccccc4C(F)(F)F)cs3)C2)cc1.O=C(O)C(F)(F)F (stereo not drawn) [TCMDC-134441] | 14.18
CC(C)(C)c1ccc(CN2CCC(CNC(=O)c3cc(-c4cccc(C(F)(F)F)c4)cs3)C2)cc1.O=C(O)C(F)(F)F (stereo not drawn) [TCMDC-134442] | 6.75
CC(C)(C)c1ccc(CN2CCC(CNC(=O)c3cc(-c4ccccc4F)cs3)C2)cc1.O=C(O)C(F)(F)F (stereo not drawn) [TCMDC-134443] | 11.22
CC(C)(C)c1ccc(CN2CCC(CNC(=O)c3cc(-c4cccc(F)c4)cs3)C2)cc1.O=C(O)C(F)(F)F (stereo not drawn) [TCMDC-134444] | 5.01
CC(C)(C)c1ccc(CN2CCC(CNC(=O)c3cc(-c4ccccc4Cl)cs3)C2)cc1.O=C(O)C(F)(F)F (stereo not drawn) [TCMDC-134445] | 6.08
CC(C)(C)c1ccc(CN2CCC(CNC(=O)c3cc(-c4cccc(Cl)c4)cs3)C2)cc1.O=C(O)C(F)(F)F (stereo not drawn) [TCMDC-134446] | 7.50
COc1cccc(-c2csc(C(=O)NCC3CCN(Cc4ccc(C(C)(C)C)cc4)C3)c2)c1.O=C(O)C(F)(F)F (stereo not drawn) [TCMDC-134447] | 8.84
CCc1ccccc1-c1csc(C(=O)NCC2CCN(Cc3ccc(C(C)(C)C)cc3)C2)c1.O=C(O)C(F)(F)F (stereo not drawn) [TCMDC-134448] | 6.39
CN(C)c1ccc(-c2csc(C(=O)NCC3CCN(Cc4ccc(C(C)(C)C)cc4)C3)c2)cc1.O=C(O)C(F)(F)F (stereo not drawn) [TCMDC-134449] | 11.99
O=C(NCC1CCN(Cc2cccc(C(F)(F)F)c2)C1)c1cc(-c2cccc(C(F)(F)F)c2)cs1.O=C(O)C(F)(F)F (stereo not drawn) [TCMDC-134483] | 9.83
O=C(NCC1CCN(Cc2cccc(C(F)(F)F)c2)C1)c1cc(-c2cccc(F)c2)cs1.O=C(O)C(F)(F)F (stereo not drawn) [TCMDC-134484] | 8.35
O=C(NCC1CCN(Cc2cccc(C(F)(F)F)c2)C1)c1cc(-c2cccc(Cl)c2)cs1.O=C(O)C(F)(F)F (stereo not drawn) [TCMDC-134485] | 18.01
CN(C)c1ccc(-c2csc(C(=O)NCC3CCN(Cc4cccc(C(F)(F)F)c4)C3)c2)cc1.O=C(O)C(F)(F)F (stereo not drawn) [TCMDC-134486] | 5.26
